Laboratory results from publication PMC12592519.
These are yes or no findings as the source states them, for the method shown. Binding seen in cells or lysates may run through a third protein. Here binding means that the protein was enriched with, or labelled near, the bait; the list need not be complete. Where a sequence is shown, tags or fusion partners need not be part of it.

Chains of the proteins cited; added tags and fusions are not shown.
UniProt P35579: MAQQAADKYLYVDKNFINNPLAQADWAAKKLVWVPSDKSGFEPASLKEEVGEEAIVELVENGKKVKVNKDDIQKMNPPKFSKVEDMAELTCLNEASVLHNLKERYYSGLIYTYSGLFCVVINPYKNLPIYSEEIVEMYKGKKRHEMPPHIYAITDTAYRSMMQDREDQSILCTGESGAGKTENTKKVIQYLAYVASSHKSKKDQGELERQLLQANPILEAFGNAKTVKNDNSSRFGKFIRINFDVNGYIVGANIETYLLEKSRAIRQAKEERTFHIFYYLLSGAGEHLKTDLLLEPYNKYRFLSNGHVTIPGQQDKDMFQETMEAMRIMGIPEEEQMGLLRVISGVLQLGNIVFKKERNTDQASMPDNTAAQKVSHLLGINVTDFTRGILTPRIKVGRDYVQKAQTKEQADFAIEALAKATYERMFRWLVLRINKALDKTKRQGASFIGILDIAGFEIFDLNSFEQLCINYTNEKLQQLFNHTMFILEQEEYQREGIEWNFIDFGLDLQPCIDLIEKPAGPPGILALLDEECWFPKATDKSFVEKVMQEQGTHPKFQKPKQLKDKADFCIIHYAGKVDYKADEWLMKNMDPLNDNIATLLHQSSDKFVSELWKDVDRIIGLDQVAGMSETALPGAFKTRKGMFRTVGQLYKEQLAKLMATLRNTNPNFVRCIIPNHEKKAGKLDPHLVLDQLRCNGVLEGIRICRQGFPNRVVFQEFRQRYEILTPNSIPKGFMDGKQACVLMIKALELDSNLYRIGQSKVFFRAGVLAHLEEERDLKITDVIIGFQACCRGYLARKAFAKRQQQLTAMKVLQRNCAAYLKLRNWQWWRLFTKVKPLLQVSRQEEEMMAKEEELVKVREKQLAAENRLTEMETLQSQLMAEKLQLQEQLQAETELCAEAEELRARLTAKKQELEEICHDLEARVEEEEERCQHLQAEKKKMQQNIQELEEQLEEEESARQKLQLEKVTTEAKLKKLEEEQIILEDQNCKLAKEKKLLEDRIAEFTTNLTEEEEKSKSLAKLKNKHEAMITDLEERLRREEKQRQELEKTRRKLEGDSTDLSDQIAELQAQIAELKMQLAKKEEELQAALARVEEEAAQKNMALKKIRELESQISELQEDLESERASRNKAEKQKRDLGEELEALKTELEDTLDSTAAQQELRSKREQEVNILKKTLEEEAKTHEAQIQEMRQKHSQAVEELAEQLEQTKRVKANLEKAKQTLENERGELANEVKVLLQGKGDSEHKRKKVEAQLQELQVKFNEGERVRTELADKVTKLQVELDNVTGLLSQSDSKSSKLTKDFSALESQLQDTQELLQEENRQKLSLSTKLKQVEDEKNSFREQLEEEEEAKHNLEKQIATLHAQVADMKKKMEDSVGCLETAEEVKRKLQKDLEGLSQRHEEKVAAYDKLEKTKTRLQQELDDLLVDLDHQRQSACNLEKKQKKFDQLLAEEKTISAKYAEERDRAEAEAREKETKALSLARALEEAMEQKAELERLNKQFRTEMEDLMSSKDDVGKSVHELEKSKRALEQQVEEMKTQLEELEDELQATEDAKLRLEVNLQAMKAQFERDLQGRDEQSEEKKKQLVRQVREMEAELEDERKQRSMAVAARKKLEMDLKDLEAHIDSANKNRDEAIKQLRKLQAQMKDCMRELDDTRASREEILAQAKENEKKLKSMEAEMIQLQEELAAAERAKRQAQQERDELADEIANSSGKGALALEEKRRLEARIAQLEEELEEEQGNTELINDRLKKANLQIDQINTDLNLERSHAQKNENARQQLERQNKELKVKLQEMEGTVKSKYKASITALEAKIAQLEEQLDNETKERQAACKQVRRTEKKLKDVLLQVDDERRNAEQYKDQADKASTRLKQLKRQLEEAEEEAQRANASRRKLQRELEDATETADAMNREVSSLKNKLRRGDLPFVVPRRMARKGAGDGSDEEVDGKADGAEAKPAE

Target: T1, Flag-USP17LA (mouse) (UniProt Q61068)
T1 sequence: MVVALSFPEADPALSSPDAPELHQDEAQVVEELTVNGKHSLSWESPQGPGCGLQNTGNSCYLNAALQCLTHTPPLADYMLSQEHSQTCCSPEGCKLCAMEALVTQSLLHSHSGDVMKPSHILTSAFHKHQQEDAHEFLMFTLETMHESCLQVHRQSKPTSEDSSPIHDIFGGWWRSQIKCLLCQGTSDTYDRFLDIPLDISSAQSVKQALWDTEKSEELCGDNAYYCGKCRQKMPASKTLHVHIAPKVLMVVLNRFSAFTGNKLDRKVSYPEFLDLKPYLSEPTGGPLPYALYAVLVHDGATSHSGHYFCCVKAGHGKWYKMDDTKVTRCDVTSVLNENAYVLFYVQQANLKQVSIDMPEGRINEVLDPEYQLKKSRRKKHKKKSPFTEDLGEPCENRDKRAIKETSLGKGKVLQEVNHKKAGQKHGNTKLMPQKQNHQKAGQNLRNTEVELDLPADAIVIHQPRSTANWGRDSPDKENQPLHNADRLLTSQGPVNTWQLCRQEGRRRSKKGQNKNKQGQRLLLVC
Experiment: affinity purification with mass spectrometry; Flag-USP17LA from transfected HEK293T cells; NP-40 lysis buffer; anti-Flag M2 magnetic beads 2-4 h at 4 °C; elution with 3x FLAG peptide; silver staining, semiquantitative mass spectrometry; hits with a USP17LA-to-vector ratio above 2 or found only with USP17LA

binding: binds
Substance: MYH9 (from UniProt P35579 1-1960)
